At least one compound was matched to its structure with a doubt left.
Legend:
[1] = system: Tcon cells; assay: Suppression by thawed CB Treg cells with or without ruxolitinib; format: cell-based, human; conditions: 0.05 μM ruxolitinib, 96 hours of co-culture
[2] = system: xenogeneic mouse graft versus host disease (GVHD) model
Experimental: FIG. 33 depicts a schematic for treatment of a xenogeneic mouse graft versus host disease (GVHD) model with a ruxolitinib and activated Treg cells regimen. PBMC=peripheral blood mononuclear cells.
A xenogeneic mouse graft versus host disease (GVHD) model was treated with a ruxolitinib and activated CB Treg cells regimen, as depicted in FIG. 33. NSG mice underwent sublethal irradiation on day −1 followed by injection of 1×10^7 donor peripheral blood (PB) mononuclear cells (MNCs) on day 0. Oral ruxolitinib at 1 mg daily was fed continuously to the mice in the presence or absence of 1×10^7 CB Treg cells, tagged with CellTrace™ Violet dye (ThermoFisher), administered on days +4, +7, +11, +18. Mice were followed every other day for weight, GVHD score and survival. Serial blood draws were performed to analyze for cell compartment and cytokine assays.

[3] = system: interferon (IFN)-gamma released by SLE-PBMC; assay: IFN-gamma release by pathogenic lupus cells; format: cell-based, human; conditions: Day 6
Text: FIG. 32 is a bar graph depicting the amount of interferon (IFN)-gamma released by pathogenic lupus cells in the presence or absence of combinations of (1) activated Treg cells; (2) ruxolitinib; and/or (3) camptothecin. Rux=ruxolitinib. SLE-PBMC=peripheral blood mononuclear cells derived from subjects with systemic lupus erythematosus. D6=Day 6.

SMILES: N#CC[C@H](C1CCCC1)n1cc(-c2ncnc3[nH]ccc23)cn1 [ruxolitinib]
- suppressive function of thawed cryopreserved CB Treg cells [1]: restored the suppressive function
- hemoglobin level ([2]; day 14): significant decrease in hemoglobin level
- number of human cells (human CD45) ([2]; mouse, in vivo): decreased the number of human cells
- plasma FGF-12 ([2]; mouse, in vivo): reduced equally
- plasma Macrophage-Derived Chemokine (MDC) ([2]; mouse, in vivo): reduced equally
- IFNγ release from SLE-PBMC [3]: decreased

From US12472182B2, “Compositions comprising regulatory t cells and methods of making and using the same” (Cellenkos, Inc., priority 2019, dated 2025)
